Taken from: PubChem BioAssay AID1259259 (Sanger Institute, 2017)

Screen: 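Kinome siRNA search for kinases essential alone or combined with trametinib, cetuximab or BYL719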 (primary screen)
Cells: SW1463 human colorectal cancer cells
Reagent: siRNA pool against human genes
Challenge: DMSO vehicle, or one anchor drug: BYL719 at 1 µM, cetuximab at 5 µg/ml, or trametinib at 10 nM
Read-out: 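Viability relative to control pool 2 (non-targeting) averaged over replicates, robust z-score for knock-down with no drug, and for each anchor drug the mean synergy score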
Scale: robust z-score, knock-down alone: higher = more viable cells after knock-down; viability, knock-down alone: higher = more viable cells; synergy score with BYL719 and synergy score with cetuximab and synergy score with trametinib: higher = stronger synergy (synthetic lethal) with drug
Call rule: 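a robust z-score under -3 for knock-down with no drug marks the gene as essential, meaning viability loss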
Meaning of the calls: active = essential: viability loss from knock-down alone; inactive = no change from knock-down alone
The whole screen tested 794 reagents; this is a random part of them. 9 of all reagents (1.1%) were called active. 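Calls rest on knock-down alone, not drug synergy; viability values seem capped at 1.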 A number with no mark means an inactive call. Not given: the amount of reagent, the time to read-out.

| Gene | robust z-score, knock-down alone | viability, knock-down alone (fraction of control) | synergy score with BYL719 | synergy score with cetuximab | synergy score with trametinib |
| --- | --- | --- | --- | --- | --- |
| CAMK2G (GeneID 818) | 0.221 | 0.942 | -0.0582 | 0.128 | 0.0782 |
| RUNX1 (GeneID 861) | 0.222 | 0.942 | -0.0581 | 0.0801 | 0.164 |
| PDPK1 (GeneID 5170) | -0.952 | 0.867 | -0.0762 | 0.0366 | -0.0608 |
| ABL1 (GeneID 25) | -1.6 | 0.825 | -0.119 | -0.198 | -0.0903 |
| PIK3C3 (GeneID 5289) | 0.845 | 0.982 | 0.0562 | 0.148 | 0.0424 |
| NME3 (GeneID 4832) | 0.108 | 0.935 | -0.0344 | -0.0539 | 0.0755 |
| MKNK1 (GeneID 8569) | 0.648 | 0.969 | -0.0307 | 0.0193 | 0.148 |
| THNSL1 (GeneID 79896) | 1.13 | 1 | 0 | 0.000383 | -0.0326 |
| TP53 (GeneID 7157) | -1.17 | 0.853 | -0.0208 | 0.12 | 0.0925 |
| WHR1 (GeneID 8859) | 0.125 | 0.936 | 0.11 | -0.0604 | -0.0881 |
| TGFBR1 (GeneID 7046) | 1.13 | 1 | 0 | 0.191 | 0.109 |
| CIT (GeneID 11113) | -1.1 | 0.857 | 0.122 | 0.254 | 0.0568 |
| SPHK2 (GeneID 56848) | 0.412 | 0.954 | -0.0459 | -0.0144 | -0.0255 |
| MARK1 (GeneID 4139) | 1.13 | 1 | 0.0911 | 0.155 | -0.00907 |
| PIP4K2A (GeneID 5305) | -1.06 | 0.86 | -0.14 | -0.124 | -0.168 |
| PTPN11 (GeneID 5781) | 0.0976 | 0.934 | -0.0661 | 0.0395 | -0.0966 |
| STK4 (GeneID 6789) | -0.38 | 0.903 | -0.0333 | -0.0414 | -0.126 |
| NME6 (GeneID 10201) | -1.44 | 0.835 | -0.0126 | 0.00787 | 0.00348 |
| TLK1 (GeneID 9874) | -1.55 | 0.828 | 0.0609 | -0.0635 | 0.126 |
| CDK19 (GeneID 23097) | 0.449 | 0.956 | -0.0423 | 0.0393 | 0.0628 |
| HIPK1 (GeneID 204851) | 1.13 | 1 | 0 | 0.257 | -0.0326 |
| NUP98 (GeneID 4928) | -0.926 | 0.868 | 0.0277 | 0.219 | 0.114 |
| PDK3 (GeneID 5165) | 0.505 | 0.96 | -0.0117 | 0.129 | -0.0712 |
| ULK3 (GeneID 25989) | -0.529 | 0.894 | -0.0154 | -0.131 | 0.00513 |
| HIPK3 (GeneID 10114) | -0.493 | 0.896 | 0.0527 | -0.114 | -0.0662 |
| BRSK2 (GeneID 9024) | -0.091 | 0.922 | -0.0217 | -0.0156 | -0.0671 |
| FN3KRP (GeneID 79672) | -0.00147 | 0.928 | 0.144 | 0.0785 | -0.0949 |
| PMVK (GeneID 10654) | -0.328 | 0.907 | 0.0142 | 0.124 | 0.0527 |
| LMBR1 (GeneID 64327) | 0.409 | 0.954 | -0.0461 | 0.0444 | 0.0218 |
| NTRK2 (GeneID 4915) | 1.13 | 1 | 0.047 | 0.221 | -0.0326 |
| ULK4 (GeneID 54986) | -1.12 | 0.856 | 0.007 | 0.108 | -0.00256 |
| IRAK1 (GeneID 3654) | -0.708 | 0.882 | -0.087 | 0.0663 | 0.1 |
| ITPKA (GeneID 3706) | 1.13 | 1 | 0 | -0.0236 | 0.096 |
| CDC42BPA (GeneID 8476) | -0.0601 | 0.924 | -0.00897 | 0.167 | 0.0604 |

Single entries from the entries so far:
Result for RUNX1 (GeneID 861) under “viability, knock-down alone (fraction of control)”: 0.942
HIPK3 (GeneID 10114), synergy score with trametinib: -0.0662
THNSL1 (GeneID 79896), robust z-score, knock-down alone → 1.13
TP53 (GeneID 7157), viability, knock-down alone (fraction of control): 0.853
MKNK1 (GeneID 8569), robust z-score, knock-down alone: 0.648
Value for IRAK1 (GeneID 3654) under “viability, knock-down alone (fraction of control)”: 0.882

Additional results follow.
| Gene | robust z-score, knock-down alone | viability, knock-down alone (fraction of control) | synergy score with BYL719 | synergy score with cetuximab | synergy score with trametinib |
| --- | --- | --- | --- | --- | --- |
| PRKAA1 (GeneID 5562) | 0.506 | 0.96 | -0.0398 | 0.00453 | 0.0873 |
| SYNCRIP (GeneID 10492) | -0.847 | 0.873 | 0.0116 | -0.00453 | 0.084 |
| FXN (GeneID 2395) | 0.361 | 0.951 | 0.0157 | -0.0665 | 0.0806 |
| DGUOK (GeneID 1716) | 0.618 | 0.967 | 0.174 | 0.226 | 0.222 |
| ITK (GeneID 3702) | 0.179 | 0.939 | -0.0609 | 0.0209 | -0.0915 |
| EPHA6 (GeneID 285220) | 0.362 | 0.951 | 0.0364 | 0.246 | 0.161 |
| PACSIN1 (GeneID 29993) | 0.514 | 0.961 | 0.0637 | 0.0348 | -0.0707 |
| CDKL1 (GeneID 8814) | -0.712 | 0.882 | 0.052 | 0.141 | 0.0486 |
| PNKP (GeneID 11284) | 0.378 | 0.952 | 0.00545 | -0.0147 | -0.0791 |
| GUCY2F (GeneID 2986) | 0.886 | 0.985 | 0.00548 | 0.133 | 0.128 |
| MAPKAPK2 (GeneID 9261) | 0.00778 | 0.928 | -0.0177 | 0.101 | 0.144 |
| SHPK (GeneID 23729) | 1.13 | 1 | 0.00724 | -0.0272 | 0.15 |
| TSSK1B (GeneID 83942) | 0.219 | 0.942 | -0.0105 | 0.116 | 0.0872 |
| UHMK1 (GeneID 127933) | -1.01 | 0.863 | -0.0134 | 0.0245 | 0.11 |
| NME2 (GeneID 4831) | 1.13 | 1 | 0 | 0.0111 | 0.0655 |
| CSNK1A1 (GeneID 1452) | 0.859 | 0.983 | -0.0172 | 0.145 | -0.0492 |
| PSKH1 (GeneID 5681) | -0.192 | 0.915 | 0.048 | -0.11 | 0.174 |
| HSPB8 (GeneID 26353) | 0.544 | 0.963 | 0.0392 | -0.0636 | 0.107 |
| CSNK1A1L (GeneID 122011) | 0.214 | 0.941 | 0.0673 | 0.0416 | -0.0893 |
| OXSR1 (GeneID 9943) | -0.117 | 0.92 | -0.0609 | -0.105 | -0.056 |
| TTBK1 (GeneID 84630) | 0.145 | 0.937 | -0.0372 | -0.0885 | -0.0936 |
| JAK1 (GeneID 3716) | -0.644 | 0.886 | 0.0121 | 0.0959 | -0.0204 |
| TAOK2 (GeneID 9344) | 0.444 | 0.956 | -0.0439 | -0.0699 | 0.0517 |
| EFNA5 (GeneID 1946) | 0.725 | 0.974 | -0.0258 | 0.061 | -0.0576 |
| CAMK1D (GeneID 57118) | -0.982 | 0.865 | 0.092 | 0.137 | 0.0995 |
| COMMD3 (GeneID 23412) | 0.821 | 0.98 | 0.0649 | 0.00299 | 0.0736 |
| CAMK2A (GeneID 815) | -0.09 | 0.922 | 0.0546 | -0.046 | -0.0703 |
| HIPK4 (GeneID 147746) | 1.13 | 1 | 0 | 0.165 | 0.0542 |
| FYN (GeneID 2534) | -0.377 | 0.903 | -0.0603 | 0.055 | 0.0387 |
